According to article PMC8257531:
These are yes or no findings as the source states them, for the method shown. In cells and extracts the contact can be indirect. Some entries that bind do so weakly or less than the wild type. For part of these data: Tags and fused reporters may be left off the sequences shown.

By UniProt entry, the sequences of proteins in these tests, tags left out.
UniProt Q9NRU3: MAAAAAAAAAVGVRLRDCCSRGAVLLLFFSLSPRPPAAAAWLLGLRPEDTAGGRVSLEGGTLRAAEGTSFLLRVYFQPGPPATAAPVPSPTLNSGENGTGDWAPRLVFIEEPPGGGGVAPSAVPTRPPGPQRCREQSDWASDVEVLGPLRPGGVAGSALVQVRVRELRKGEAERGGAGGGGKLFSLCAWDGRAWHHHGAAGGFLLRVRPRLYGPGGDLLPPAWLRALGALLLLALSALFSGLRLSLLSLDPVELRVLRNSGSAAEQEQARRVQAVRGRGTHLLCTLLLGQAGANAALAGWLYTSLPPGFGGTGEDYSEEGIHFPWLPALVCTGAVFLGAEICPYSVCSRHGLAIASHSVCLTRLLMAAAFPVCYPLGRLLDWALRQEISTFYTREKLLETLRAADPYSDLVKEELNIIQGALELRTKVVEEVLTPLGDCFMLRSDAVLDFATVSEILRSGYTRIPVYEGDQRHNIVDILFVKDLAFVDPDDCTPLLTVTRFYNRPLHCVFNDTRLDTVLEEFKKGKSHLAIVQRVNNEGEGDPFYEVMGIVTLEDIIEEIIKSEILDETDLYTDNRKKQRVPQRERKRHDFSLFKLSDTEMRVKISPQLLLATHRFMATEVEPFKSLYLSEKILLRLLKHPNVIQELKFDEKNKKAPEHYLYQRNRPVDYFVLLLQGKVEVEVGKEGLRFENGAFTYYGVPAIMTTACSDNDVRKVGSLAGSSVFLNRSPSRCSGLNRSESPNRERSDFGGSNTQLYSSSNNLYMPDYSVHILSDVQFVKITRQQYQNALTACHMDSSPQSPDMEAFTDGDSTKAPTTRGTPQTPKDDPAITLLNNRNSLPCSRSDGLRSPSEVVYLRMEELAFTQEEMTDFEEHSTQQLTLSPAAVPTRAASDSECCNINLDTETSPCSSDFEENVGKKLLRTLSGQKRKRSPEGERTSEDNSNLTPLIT

Key:
[1] = molecular target: FLAG-tagged CNNM1 (human) (UniProt Q9NRU3); test: co-IP; anti-FLAG M2 agarose precipitates overexpressed FLAG-tagged CNNM1-4 from total cell lysate, 2 h at 4 °C; for CNNM3 also lysis buffer with 1 mM Mg2+ or without Mg2+ (Supp. Fig. 2B, constructs not told)
[2] = molecular target: T1, FLAG-tagged CNNM2 (human) (UniProt Q9H8M5); test: as above
T1 sequence: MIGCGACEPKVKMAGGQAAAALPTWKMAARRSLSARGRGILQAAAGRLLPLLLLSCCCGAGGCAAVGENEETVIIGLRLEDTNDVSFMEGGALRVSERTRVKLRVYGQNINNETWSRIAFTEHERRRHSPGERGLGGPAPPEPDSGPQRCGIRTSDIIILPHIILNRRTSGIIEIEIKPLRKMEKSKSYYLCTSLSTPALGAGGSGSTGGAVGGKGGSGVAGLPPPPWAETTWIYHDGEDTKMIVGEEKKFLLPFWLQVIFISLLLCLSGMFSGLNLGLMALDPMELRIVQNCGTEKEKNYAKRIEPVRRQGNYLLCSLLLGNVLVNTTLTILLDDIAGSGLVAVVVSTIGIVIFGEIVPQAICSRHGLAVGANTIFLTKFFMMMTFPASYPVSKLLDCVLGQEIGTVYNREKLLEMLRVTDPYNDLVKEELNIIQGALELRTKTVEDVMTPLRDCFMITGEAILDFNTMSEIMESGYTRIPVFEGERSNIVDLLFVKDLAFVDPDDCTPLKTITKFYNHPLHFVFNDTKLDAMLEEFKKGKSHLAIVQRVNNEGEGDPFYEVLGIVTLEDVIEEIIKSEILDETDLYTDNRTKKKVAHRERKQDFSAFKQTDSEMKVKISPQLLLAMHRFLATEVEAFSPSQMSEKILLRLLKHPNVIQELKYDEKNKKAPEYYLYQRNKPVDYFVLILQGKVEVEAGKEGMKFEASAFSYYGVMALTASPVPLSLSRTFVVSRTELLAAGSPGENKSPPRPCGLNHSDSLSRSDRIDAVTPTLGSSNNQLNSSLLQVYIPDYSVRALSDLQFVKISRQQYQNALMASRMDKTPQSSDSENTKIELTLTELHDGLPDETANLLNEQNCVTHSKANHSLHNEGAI

[3] = molecular target: T2, FLAG-tagged CNNM3 (human) (UniProt Q8NE01); test: as above
T2 sequence: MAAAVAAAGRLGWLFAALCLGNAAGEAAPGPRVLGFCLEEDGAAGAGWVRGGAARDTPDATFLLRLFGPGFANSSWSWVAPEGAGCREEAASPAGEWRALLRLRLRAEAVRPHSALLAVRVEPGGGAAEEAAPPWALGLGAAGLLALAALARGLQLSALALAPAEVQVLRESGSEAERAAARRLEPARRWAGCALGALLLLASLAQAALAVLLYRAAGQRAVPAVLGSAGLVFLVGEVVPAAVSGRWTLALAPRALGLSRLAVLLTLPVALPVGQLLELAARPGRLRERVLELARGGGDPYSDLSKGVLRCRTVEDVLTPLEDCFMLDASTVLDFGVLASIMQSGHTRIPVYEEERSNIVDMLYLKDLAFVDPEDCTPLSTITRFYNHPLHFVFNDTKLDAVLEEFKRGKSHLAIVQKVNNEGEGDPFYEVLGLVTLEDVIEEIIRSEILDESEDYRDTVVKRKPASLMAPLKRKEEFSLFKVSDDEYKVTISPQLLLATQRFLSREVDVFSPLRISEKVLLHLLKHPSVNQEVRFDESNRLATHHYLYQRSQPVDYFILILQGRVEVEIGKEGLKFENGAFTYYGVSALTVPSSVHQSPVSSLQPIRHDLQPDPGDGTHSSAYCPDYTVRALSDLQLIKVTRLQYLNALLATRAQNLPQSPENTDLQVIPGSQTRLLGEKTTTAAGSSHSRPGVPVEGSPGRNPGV

[4] = molecular target: T3, FLAG-tagged CNNM4 (human) (UniProt Q6P4Q7); test: as above
T3 sequence: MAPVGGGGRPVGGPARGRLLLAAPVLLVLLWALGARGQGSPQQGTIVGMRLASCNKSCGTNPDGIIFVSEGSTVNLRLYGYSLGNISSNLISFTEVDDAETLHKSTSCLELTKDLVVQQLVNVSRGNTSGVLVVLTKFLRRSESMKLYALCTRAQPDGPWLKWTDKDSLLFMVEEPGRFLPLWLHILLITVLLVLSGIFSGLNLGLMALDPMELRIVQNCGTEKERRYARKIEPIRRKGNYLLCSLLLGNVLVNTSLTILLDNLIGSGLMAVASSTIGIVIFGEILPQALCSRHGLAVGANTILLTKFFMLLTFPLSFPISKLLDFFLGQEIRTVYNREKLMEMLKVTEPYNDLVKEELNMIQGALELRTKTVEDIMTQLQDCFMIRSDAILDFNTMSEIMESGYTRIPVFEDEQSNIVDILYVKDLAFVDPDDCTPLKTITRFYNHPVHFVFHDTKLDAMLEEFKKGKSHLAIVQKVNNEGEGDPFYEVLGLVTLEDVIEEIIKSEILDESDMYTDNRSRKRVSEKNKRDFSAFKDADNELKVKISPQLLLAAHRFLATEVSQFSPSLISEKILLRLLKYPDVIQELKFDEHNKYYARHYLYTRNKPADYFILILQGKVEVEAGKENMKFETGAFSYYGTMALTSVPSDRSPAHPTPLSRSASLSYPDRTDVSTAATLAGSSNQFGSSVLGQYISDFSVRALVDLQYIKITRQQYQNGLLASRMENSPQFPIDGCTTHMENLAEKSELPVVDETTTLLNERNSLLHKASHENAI

[5] = molecular target: T2, FLAG-tagged CNNM3 (human); test: co-IP; overexpressed CNNM3, ARL15 and RPN1 (Supp. Fig. 5); tags, cells and which protein was precipitated not told

Measured: binding

B1: PRL-1 (endogenous) (protein, UniProt Q93096 1-173)
chain: MARMNRPAPVEVTYKNMRFLITHNPTNATLNKFIEELKKYGVTTIVRVCEATYDTTLVEKEGIHVLDWPFDDGAPPSNQIVDDWLSLVKIKFREEPGCCIAVHCVAGLGRAPVLVALALIEGGMKYEDAVQFIRQKRRGAFNSKQLLYLEKYRPKMRLRFKDSNGHRNNCCIQ
not listed: [5]
binds: all other assays above

B2: PRL-2 (endogenous) (protein, UniProt Q12974 1-167)
chain: MNRPAPVEISYENMRFLITHNPTNATLNKFTEELKKYGVTTLVRVCDATYDKAPVEKEGIHVLDWPFDDGAPPPNQIVDDWLNLLKTKFREEPGCCVAVHCVAGLGRAPVLVALALIECGMKYEDAVQFIRQKRRGAFNSKQLLYLEKYRPKMRLRFRDTNGHCCVQ
not listed: [5]
binds: all other assays above

B3: overexpressed RPN1 (protein, UniProt P04843 24-607)
chain: ASSEAPPLINEDVKRTVDLSSHLAKVTAEVVLAHLGGGSTSRATSFLLALEPELEARLAHLGVQVKGEDEEENNLEVRETKIKGKSGRFFTVKLPVALDPGAKISVIVETVYTHVLHPYPTQITQSEKQFVVFEGNHYFYSPYPTKTQTMRVKLASRNVESYTKLGNPTRSEDLLDYGPFRDVPAYSQDTFKVHYENNSPFLTITSMTRVIEVSHWGNIAVEENVDLKHTGAVLKGPFSRYDYQRQPDSGISSIRSFKTILPAAAQDVYYRDEIGNVSTSHLLILDDSVEMEIRPRFPLFGGWKTHYIVGYNLPSYEYLYNLGDQYALKMRFVDHVFDEQVIDSLTVKIILPEGAKNIEIDSPYEISRAPDELHYTYLDTFGRPVIVAYKKNLVEQHIQDIVVHYTFNKVLMLQEPLLVVAAFYILFFTVIIYVRLDFSITKDPAAEARMKVACITEQVLTLVNKRIGLYRHFDETVNRYKQSRDISTLNSGKKSLETEHKALTSEIALLQSRLKTEGSDLCDRVSEMQKLDAQVKELVLKSAVEAERLVAGKLKKDTYIENEKLISGKRQELVTKIDHILDAL
binds: [5]
